Test results published in article PMC8582215.
These are yes or no findings as the source states them, for the method shown. In cells and extracts the contact can be indirect. For some assays here: Binding can be weak; no strength is given. Tags and fused reporters may be left off the sequences shown.

How the values were obtained:
[1] = biological target: ZjSEP3-NYFP (Ziziphus jujuba); assay: split reporter; BiFC: ZjSEP3 in pSPYNE (NYFP) and AtLHY in pSPYCE (CYFP), agro-infiltrated Nicotiana benthamiana leaves, observed 48 h after infiltration
NYFP (N-terminus of YFP) = assay: as above

B1: AtLHY-CYFP (protein, UniProt Q6R0H1 1-645)
chain: MDTNTSGEELLAKARKPYTITKQRERWTEDEHERFLEALRLYGRAWQRIEEHIGTKTAVQIRSHAQKFFTKLEKEAEVKGIPVCQALDIEIPPPRPKRKPNTPYPRKPGNNGTSSSQVSSAKDAKLVSSASSSQLNQAFLDLEKMPFSEKTSTGKENQDENCSGVSTVNKYPLPTKQVSGDIETSKTSTVDNAVQDVPKKNKDKDGNDGTTVHSMQNYPWHFHADIVNGNIAKCPQNHPSGMVSQDFMFHPMREETHGHANLQATTASATTTASHQAFPACHSQDDYRSFLQISSTFSNLIMSTLLQNPAAHAAATFAASVWPYASVGNSGDSSTPMSSSPPSITAIAAATVAAATAWWASHGLLPVCAPAPITCVPFSTVAVPTPAMTEMDTVENTQPFEKQNTALQDQNLASKSPASSSDDSDETGVTKLNADSKTNDDKIEEVVVTAAVHDSNTAQKKNLVDRSSCGSNTPSGSDAETDALDKMEKDKEDVKETDENQPDVIELNNRKIKMRDNNSNNNATTDSWKEVSEEGRIAFQALFARERLPQSFSPPQVAENVNRKQSDTSMPLAPNFKSQDSCAADQEGVVMIGVGTCKSLKTRQTGFKPYKRCSMEVKESQVGNINNQSDEKVCKRLRLEGEAST
With B1 the binding [1] was “binds” and the binding (NYFP (N-terminus of YFP)) was “no binding”.
